The list does not hold the whole screen: it is rich in T/C values a quarter to a half above the control, in often repeated tests (any T/C) and in doses without a T/C. Further doses and runs are listed elsewhere. T/C gives the treated animals as a percentage of the vehicle group. Schedule codes are those of the source, taken here to give the interval after Q, in days (D) or hours (H), and the number of doses after X. Some T/C values carry the count of animals alive at the toxicity check (mostly the fifth day); without a count, all were alive then. Some entries give survivors of the animals treated and no T/C: the source files T/C as zero there, which appears to mark a toxic dose or a test without result, not a measured value. Counts of survivors are from the toxicity check (mostly the fifth day) where no day follows; animals may have died later. Some entries hold several experiments; their values stand side by side, smallest first.
Test system: BDF1 mice, Adenocarcinoma 755 s.c., tumor weight T/C
Experiment: NCI In Vivo Anticancer Drug Screen. Data for tumor model Adenocarcinoma 755 (subcutaneous) in B6D2F1 (BDF1) mice
Conditions: T/C endpoint: mean tumor weight, higher T/C = larger tumour; for T/C: evaluated on day 12
Procedure, shortened: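 Tumor-bearing mice receive test compound while controls get vehicle alone. Antitumor effect is scored from survival or tumor dimensions as a T/C quotient.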

[1] = dose: 15.0 mg/kg/injection, schedule: Q01DX011 (ip), vehicle: methylcellulose (MC)
[2] = dose: 75.0 mg/kg/injection, schedule: Q01DX011 (ip), vehicle: methylcellulose (MC)
[3] = dose: 150.0 mg/kg/injection, schedule: Q01DX011 (ip), vehicle: carboxymethylcellulose (CMC)
[4] = dose: 300.0 mg/kg/injection, schedule: Q01DX011 (ip), vehicle: carboxymethylcellulose (CMC)
[5] = dose: 100.0 mg/kg/injection, schedule: Q01DX011 (ip), vehicle: methylcellulose (MC)
[6] = dose: 125.0 mg/kg/injection, schedule: Q01DX011 (ip), vehicle: carboxymethylcellulose (CMC)
[7] = dose: 60.0 mg/kg/injection, schedule: Q01DX011 (ip), vehicle: carboxymethylcellulose (CMC)

## Cn1c(=O)c2[nH]c(/N=N/N3CCN(CCO)CC3)nc2n(C)c1=O
dose: 25.0 mg/kg/injection, schedule: Q01DX011 (ip), vehicle: other
  T/C: 126 % of control

## Nc1nc(=S)cc(Nc2ccccc2Cl)[nH]1
[1]
  survivor count: 5 of 10

## Cc1ccc(CSc2ncnc3nc[nH]c23)cc1C
[2]
  survivor count: 6 of 10

## NNc1nncc2ccccc12
[3]
  survivor count: 0 of 10
[4]
  survivor count: 0 of 10

## Clc1nc(Cl)c2ncn(C3CCCO3)c2n1 (stereo unspecified)
[5]
  survivor count: 5 of 10

## C=C(C)C(=O)OCC1CO1 (stereo unspecified)
dose: 100.0 mg/kg/injection, schedule: Q01DX006 (ip), vehicle: water
  T/C: 126 % of control
dose: 250.0 mg/kg/injection, schedule: Q01DX011 (ip), vehicle: other
  survivor count: 2 of 10
dose: 300.0 mg/kg/injection, schedule: Q01DX011 (oral), vehicle: other
  survivor count: 4 of 10

## Cc1nc2nc(N)nc(N)c2nc1C
dose: 15.63 mg/kg/injection, schedule: Q01DX011 (ip), vehicle: carboxymethylcellulose (CMC)
  T/C: 130 % of control [8 of 10 alive]
dose: 50.5 mg/kg/injection, schedule: Q01DX011 (ip), vehicle: carboxymethylcellulose (CMC)
  survivor count: 3 of 10
dose: 101.0 mg/kg/injection, schedule: Q01DX011 (ip), vehicle: carboxymethylcellulose (CMC)
  survivor count: 3 of 10
[6]
  survivor count: 5 of 10
dose: 202.0 mg/kg/injection, schedule: Q01DX011 (ip), vehicle: carboxymethylcellulose (CMC)
  survivor count: 2 of 10 and 4 of 10

## Nc1[nH]c(=S)ncc1NC=O
[7]
  T/C: 131 % of control

## CS(=O)(=O)OCCC(=O)NCCCCNC(=O)CCOS(C)(=O)=O
dose: 450.0 mg/kg/injection, schedule: Q01DX011 (ip), vehicle: methylcellulose (MC)
  survivor count: 6 of 10

## CCCCn1cnc2c(SCc3ccccc3Cl)nc(N)nc21
dose: 500.0 mg/kg/injection, schedule: Q01DX011 (ip), vehicle: methylcellulose (MC)
  survivor count: 5 of 10

## Clc1ncnc2c1ncn2C1CCCS1 (stereo unspecified)
[2]
  T/C: 133 % of control
dose: 225.0 mg/kg/injection, schedule: Q01DX011 (ip), vehicle: methylcellulose (MC)
  survivor count: 5 of 10

## C1CN1c1nc(N2CC2)nc(N2CC2)n1
dose: 0.2 mg/kg/injection, schedule: Q01DX011 (ip), vehicle: carboxymethylcellulose (CMC)
  survivor count: 6 of 10
dose: 0.4 mg/kg/injection, schedule: Q02DX011 (ip), vehicle: carboxymethylcellulose (CMC)
  survivor count: 5 of 10
dose: 0.75 mg/kg/injection, schedule: Q01DX011 (ip), vehicle: saline
  survivor count: 6 of 10
dose: 0.8 mg/kg/injection, schedule: Q02DX011 (ip), vehicle: carboxymethylcellulose (CMC)
  survivor count: 0 of 10
dose: 1.0 mg/kg/injection, schedule: Q01DX011 (ip), vehicle: saline
  survivor count: 0 of 10
dose: 75.0 micrograms/kg/injection, schedule: Q01DX011 (ip), vehicle: saline
  T/C: 126 % of control
dose: 625.0 micrograms/kg/injection, schedule: Q01DX011 (ip), vehicle: methylcellulose (MC)
  survivor count: 5 of 10

## O=C(Nc1ncnc2nc[nH]c12)C(Cl)Cl
dose: 50.0 mg/kg/injection, schedule: Q01DX011 (ip), vehicle: saline
  T/C: 126 % of control
dose: 200.0 mg/kg/injection, schedule: Q01DX011 (ip), vehicle: saline
  survivor count: 2 of 10

## CN(CC#N)/N=N/c1nc[nH]c1C(N)=O
[3]
  survivor count: 6 of 10
[4]
  survivor count: 0 of 10

## Cn1c(=O)c2c(nc(N/N=C/c3cccc(Br)c3)n2C)n(C)c1=O
dose: 240.0 mg/kg/injection, schedule: Q01DX011 (ip), vehicle: carboxymethylcellulose (CMC)
  T/C: 136 % of control [7 of 10 alive]

## CNc1nc(NC)c2[nH]cnc2n1
dose: 100.0 mg/kg/injection, schedule: Q01DX011 (ip), vehicle: carboxymethylcellulose (CMC)
  survivor count: 3 of 10
[6]
  survivor count: 2 of 10
[3]
  survivor count: 1 of 10

## CC1CN1C(=O)c1cc(C(=O)N2CC2C)cc(C(=O)N2CC2C)c1 (stereo unspecified)
[1]
  survivor count: 6 of 10
dose: 60.0 mg/kg/injection, schedule: Q01DX011 (ip), vehicle: methylcellulose (MC)
  survivor count: 1 of 10 and 3 of 10
dose: 120.0 mg/kg/injection, schedule: Q01DX011 (ip), vehicle: methylcellulose (MC)
  survivor count: 5 of 10

## C[C@]12CCC(=O)C=C1CC[C@H]1[C@@H]3CC[C@@]4(OCC4=O)[C@@]3(C)C[C@H](O)[C@@]12F
dose: 300.0 mg/kg/injection, schedule: Q01DX011 (sc), vehicle: steroid suspending solution
  survivor count: 3 of 10
dose: 600.0 mg/kg/injection, schedule: Q01DX011 (sc), vehicle: steroid suspending solution
  survivor count: 0 of 10

## [N-]=[N+]=CC(=O)NCC(=O)NN
dose: 125.0 mg/kg/injection, schedule: Q01DX011 (ip), vehicle: saline
  T/C: 128 % of control

## C[C@]12CCCC[C@@H]1CC[C@@H]1[C@@H]2[C@@H](O)C[C@]2(C)[C@@H](N)CC[C@@H]12
dose: 11.0 mg/kg/injection, schedule: Q01DX011 (sc), vehicle: steroid suspending solution
  T/C: 146 % of control

## CC(=O)OCC(=O)[C@@]1(O)CC[C@H]2[C@@H]3CCC4=CC(=O)CC[C@]4(C)[C@H]3[C@@H](O)C[C@@]21C
dose: 1.87 mg/kg/injection, schedule: Q01DX011 (sc), vehicle: steroid suspending solution
  T/C: 127 % of control
dose: 40.0 mg/kg/injection, schedule: Q01DX006 (iv), vehicle: steroid suspending solution
  survivor count: 2 of 10
dose: 80.0 mg/kg/injection, schedule: Q01DX006 (iv), vehicle: steroid suspending solution
  survivor count: 6 of 10
dose: 140.0 mg/kg/injection, schedule: Q07DX002 (sc), vehicle: steroid suspending solution
  survivor count: 6 of 10
dose: 250.0 mg/kg/injection, schedule: Q01DX011 (sc), vehicle: steroid suspending solution
  survivor count: 5 of 10
dose: 320.0 mg/kg/injection, schedule: Q01DX006 (iv), vehicle: steroid suspending solution
  survivor count: 0 of 10
dose: 560.0 mg/kg/injection, schedule: Q07DX002 (sc), vehicle: steroid suspending solution
  survivor count: 6 of 10

## C#C[C@]1(O)CC[C@H]2[C@@H]3CCc4cc(O)ccc4[C@H]3CC[C@@]21C
dose: 680.0 mg/kg/injection, schedule: Q01DX011 (sc), vehicle: steroid suspending solution
  survivor count: 6 of 12

## Cn1c(N)nc2c(ncn2C2OC(CO)C(O)C2O)c1=O (stereo unspecified)
dose: 240.0 mg/kg/injection, schedule: Q01DX011 (ip), vehicle: saline
  T/C: 131 % of control

## Nc1ccc2cc(S(=O)(=O)O)cc(O)c2c1N=Nc1ccc(NC(=O)c2ccc(C(=O)Nc3ccc(N=Nc4c(N)ccc5cc(S(=O)(=O)O)cc(O)c45)c(S(=O)(=O)O)c3)cc2)cc1S(=O)(=O)O
dose: 30.0 mg/kg/injection, schedule: Q01DX011 (ip), vehicle: carboxymethylcellulose (CMC)
  survivor count: 1 of 10
[7]
  survivor count: 1 of 10

## CCN(CC)CCOc1ccc(C2=C(c3ccccc3)CCc3cc(OC)ccc32)cc1
dose: 100.0 mg/kg/injection, schedule: Q01DX011 (sc), vehicle: steroid suspending solution
  survivor count: 3 of 10

## Cc1ccc(C(=O)[O][Hg][CH2]C2COC([CH2][Hg][O]C(=O)c3ccc(C)cc3)CO2)cc1 (stereo unspecified)
dose: 6.25 mg/kg/injection, schedule: Q01DX011 (ip), vehicle: methylcellulose (MC)
  survivor count: 5 of 10 and 6 of 10
dose: 25.0 mg/kg/injection, schedule: Q01DX011 (ip), vehicle: methylcellulose (MC)
  survivor count: 2 of 10 and 5 of 10
dose: 50.0 mg/kg/injection, schedule: Q01DX011 (ip), vehicle: methylcellulose (MC)
  survivor count: 1 of 10
[5]
  survivor count: 4 of 10

## CS(=O)(=O)OCC(=O)NCCNC(=O)COS(C)(=O)=O
dose: 140.0 mg/kg/injection, schedule: Q01DX011 (ip), vehicle: carboxymethylcellulose (CMC)
  survivor count: 6 of 10
dose: 315.0 mg/kg/injection, schedule: Q01DX011 (ip), vehicle: carboxymethylcellulose (CMC)
  survivor count: 6 of 10
dose: 475.0 mg/kg/injection, schedule: Q01DX011 (ip), vehicle: carboxymethylcellulose (CMC)
  survivor count: 6 of 10

## CCCCN(C)N=Nc1ccc(S(N)(=O)=O)cc1
dose: 16.0 mg/kg/injection, schedule: Q01DX011 (ip), vehicle: carboxymethylcellulose (CMC)
  T/C: 140 % of control
